Tested on: HLA molecules from shock-frozen tissue samples
Test: Identification and quantitation of tumor associated peptides presented on the cell surface (HLA immunoprecipitation, LC-MS)
Design: species or system human
Details: cancer entities on which the peptide was detected by LC-MS of HLA ligands

Substance	Peptide Presentation on cancer entities
1 (RVYPHKTLY; listed as Homo sapiens) [compound 1]	HCC, UBC
2 (KVMPKQTWK; listed as Homo sapiens) [compound 2]	HCC
3 (LLYGNGPGYVLK; listed as Homo sapiens) [compound 3]	UEC
4 (RGLSGIGAFR; listed as Homo sapiens) [compound 4]	HNSCC
6 (SIFGLAPGK; listed as Homo sapiens) [compound 6]	UEC
7 (RLVELAGQSLLK; listed as Homo sapiens) [compound 7]	UEC
8 (FSNNHPSTPK; listed as Homo sapiens) [compound 8]	MEL
9 (HVLYPVPLESY; listed as Homo sapiens) [compound 9]	MEL
10 (KARDLRTPK; listed as Homo sapiens) [compound 10]	CRC
11 (PLPRPGAVLK; listed as Homo sapiens) [compound 11]	NHL
13 (AVAFFVLPSK; listed as Homo sapiens) [compound 13]	NHL
14 (VAFFVLPSK; listed as Homo sapiens) [compound 14]	AML
17 (GGLSSQGVYY; listed as Homo sapiens) [compound 17]	CCC
18 (RLYYSFKNITK; listed as Homo sapiens) [compound 18]	NHL
19 (ALAAKLEVK; listed as Homo sapiens) [compound 19]	GBM
20 (LLPTVLIKK; listed as Homo sapiens) [compound 20]	AML, HCC, HNSCC, NSCLCother, OSCAR, UEC
21 (SSLAELIAK; listed as Homo sapiens) [compound 21]	HNSCC
22 (EGLFLLGCVK; listed as Homo sapiens) [compound 22]	NHL
24 (KLETGVVKK; listed as Homo sapiens) [compound 24]	RCC
30 (ILDSSLLK; listed as Homo sapiens) [compound 30]	NHL

Substance	Peptide Presentation on cancer entities
31 (HAFFPKTHR; listed as Homo sapiens) [compound 31]	UEC
32 (LLDAEPPILY; listed as Homo sapiens) [compound 32]	BRCA
33 (KLLEDMVEK; listed as Homo sapiens) [compound 33]	UEC
36 (QIRAELMKK; listed as Homo sapiens) [compound 36]	HNSCC, NHL
37 (EVILTTKTPK; listed as Homo sapiens) [compound 37]	MEL
38 (SLFPYYNNLY; listed as Homo sapiens) [compound 38]	NHL
39 (KTQFPQLK; listed as Homo sapiens) [compound 39]	HCC
40 (ALNDRFAGY; listed as Homo sapiens) [compound 40]	PRCA
41 (RLGAARGQLR; listed as Homo sapiens) [compound 41]	NSCLCadeno
43 (TVYDSIWCNMK; listed as Homo sapiens) [compound 43]	UEC
45 (KCYEVGMMK; listed as Homo sapiens) [compound 45]	UEC
46 (VVTGNVPLK; listed as Homo sapiens) [compound 46]	HCC, MEL
48 (KGWNGQIFK; listed as Homo sapiens) [compound 48]	AML
49 (ITAPLMPLGK; listed as Homo sapiens) [compound 49]	CCC, HNSCC
50 (HSAGIFSMY; listed as Homo sapiens) [compound 50]	NHL
51 (VTADGALAMEK; listed as Homo sapiens) [compound 51]	CCC, CRC, HNSCC, UEC
52 (GMYEYGSIEK; listed as Homo sapiens) [compound 52]	MEL
53 (KQALSLVRK; listed as Homo sapiens) [compound 53]	CCC, CRC, HNSCC, UEC
54 (GVTITKTLK; listed as Homo sapiens) [compound 54]	BRCA, MEL
55 (RLSAESKDLLK; listed as Homo sapiens) [compound 55]	GBM

Substance	Peptide Presentation on cancer entities
56 (TTYYPSPLNK; listed as Homo sapiens) [compound 56]	RCC
57 (RVLYRPQLEK; listed as Homo sapiens) [compound 57]	HCC
58 (VLYRPQLEK; listed as Homo sapiens) [compound 58]	HCC
59 (KINQYIIKK; listed as Homo sapiens) [compound 59]	MEL
60 (VVFPFPVNKR; listed as Homo sapiens) [compound 60]	AML
61 (SLYDSEPRKK; listed as Homo sapiens) [compound 61]	AML, CCC, GBC, GBM, HNSCC, MEL, NHL, OSCAR, UBC, UEC
62 (GIFPKIMPK; listed as Homo sapiens) [compound 62]	HCC
63 (SSFRPLLSK; listed as Homo sapiens) [compound 63]	BRCA, CRC, GBM, HCC, MEL, PACA, PRCA, SCLC, UEC
64 (SVLSRMLVR; listed as Homo sapiens) [compound 64]	MEL, UEC
65 (RTIEELQNK; listed as Homo sapiens) [compound 65]	HNSCC
66 (RVKEIVINK; listed as Homo sapiens) [compound 66]	MEL
67 (VVREILHAQTLK; listed as Homo sapiens) [compound 67]	MEL, NHL
68 (KGPMAGILAY; listed as Homo sapiens) [compound 68]	AML, NHL
71 (VLYELGIIGNNK; listed as Homo sapiens) [compound 71]	MEL
72 (KLYPQCLQK; listed as Homo sapiens) [compound 72]	NHL
73 (RCFSGPYLNK; listed as Homo sapiens) [compound 73]	BRCA, MEL, NHL
75 (IIFVPEMNK; listed as Homo sapiens) [compound 75]	UEC
77 (VVDDSQLPK; listed as Homo sapiens) [compound 77]	CCC, CRC, MEL, NHL, NSCLCsquam, RCC
78 (KTGTFVLYKS; listed as Homo sapiens) [compound 78]	HNSCC, NHL, SCLC

— patent US11872270B2, “A*03 restricted peptides for use in immunotherapy against cancers and related methods” (Immatics Biotechnologies GmbH, priority 2018, dated 2024)
